Source: the supplement of paper PMC11006884
This is a selection; strong and weak results do not stand in their true shares. This is a noisy data set.

Chains of the proteins cited; added tags and fusions are not shown. Lines headed by an entry give the natural chain unless they say otherwise; changes in a name come on top.
UniProt P49674: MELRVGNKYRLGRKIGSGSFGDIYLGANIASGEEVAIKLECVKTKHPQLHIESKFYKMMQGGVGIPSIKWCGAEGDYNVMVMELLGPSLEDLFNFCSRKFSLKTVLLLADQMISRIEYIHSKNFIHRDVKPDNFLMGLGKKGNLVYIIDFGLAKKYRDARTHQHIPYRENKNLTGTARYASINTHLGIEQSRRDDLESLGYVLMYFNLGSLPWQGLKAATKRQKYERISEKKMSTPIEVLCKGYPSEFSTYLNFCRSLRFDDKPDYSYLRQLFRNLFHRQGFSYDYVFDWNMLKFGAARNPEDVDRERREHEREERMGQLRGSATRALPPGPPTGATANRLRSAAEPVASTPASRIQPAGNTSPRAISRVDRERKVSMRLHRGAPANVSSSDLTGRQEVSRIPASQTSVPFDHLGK
UniProt P48556: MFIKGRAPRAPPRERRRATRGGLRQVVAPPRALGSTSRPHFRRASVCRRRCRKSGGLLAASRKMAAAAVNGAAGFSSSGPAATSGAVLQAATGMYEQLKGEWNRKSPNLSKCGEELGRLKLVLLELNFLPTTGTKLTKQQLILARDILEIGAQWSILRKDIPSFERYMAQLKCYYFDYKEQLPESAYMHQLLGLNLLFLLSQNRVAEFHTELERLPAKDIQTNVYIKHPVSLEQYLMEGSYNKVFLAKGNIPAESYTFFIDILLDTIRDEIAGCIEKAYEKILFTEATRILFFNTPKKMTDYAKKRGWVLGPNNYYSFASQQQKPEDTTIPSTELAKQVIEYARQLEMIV
UniProt P49327, whole entry, looked up: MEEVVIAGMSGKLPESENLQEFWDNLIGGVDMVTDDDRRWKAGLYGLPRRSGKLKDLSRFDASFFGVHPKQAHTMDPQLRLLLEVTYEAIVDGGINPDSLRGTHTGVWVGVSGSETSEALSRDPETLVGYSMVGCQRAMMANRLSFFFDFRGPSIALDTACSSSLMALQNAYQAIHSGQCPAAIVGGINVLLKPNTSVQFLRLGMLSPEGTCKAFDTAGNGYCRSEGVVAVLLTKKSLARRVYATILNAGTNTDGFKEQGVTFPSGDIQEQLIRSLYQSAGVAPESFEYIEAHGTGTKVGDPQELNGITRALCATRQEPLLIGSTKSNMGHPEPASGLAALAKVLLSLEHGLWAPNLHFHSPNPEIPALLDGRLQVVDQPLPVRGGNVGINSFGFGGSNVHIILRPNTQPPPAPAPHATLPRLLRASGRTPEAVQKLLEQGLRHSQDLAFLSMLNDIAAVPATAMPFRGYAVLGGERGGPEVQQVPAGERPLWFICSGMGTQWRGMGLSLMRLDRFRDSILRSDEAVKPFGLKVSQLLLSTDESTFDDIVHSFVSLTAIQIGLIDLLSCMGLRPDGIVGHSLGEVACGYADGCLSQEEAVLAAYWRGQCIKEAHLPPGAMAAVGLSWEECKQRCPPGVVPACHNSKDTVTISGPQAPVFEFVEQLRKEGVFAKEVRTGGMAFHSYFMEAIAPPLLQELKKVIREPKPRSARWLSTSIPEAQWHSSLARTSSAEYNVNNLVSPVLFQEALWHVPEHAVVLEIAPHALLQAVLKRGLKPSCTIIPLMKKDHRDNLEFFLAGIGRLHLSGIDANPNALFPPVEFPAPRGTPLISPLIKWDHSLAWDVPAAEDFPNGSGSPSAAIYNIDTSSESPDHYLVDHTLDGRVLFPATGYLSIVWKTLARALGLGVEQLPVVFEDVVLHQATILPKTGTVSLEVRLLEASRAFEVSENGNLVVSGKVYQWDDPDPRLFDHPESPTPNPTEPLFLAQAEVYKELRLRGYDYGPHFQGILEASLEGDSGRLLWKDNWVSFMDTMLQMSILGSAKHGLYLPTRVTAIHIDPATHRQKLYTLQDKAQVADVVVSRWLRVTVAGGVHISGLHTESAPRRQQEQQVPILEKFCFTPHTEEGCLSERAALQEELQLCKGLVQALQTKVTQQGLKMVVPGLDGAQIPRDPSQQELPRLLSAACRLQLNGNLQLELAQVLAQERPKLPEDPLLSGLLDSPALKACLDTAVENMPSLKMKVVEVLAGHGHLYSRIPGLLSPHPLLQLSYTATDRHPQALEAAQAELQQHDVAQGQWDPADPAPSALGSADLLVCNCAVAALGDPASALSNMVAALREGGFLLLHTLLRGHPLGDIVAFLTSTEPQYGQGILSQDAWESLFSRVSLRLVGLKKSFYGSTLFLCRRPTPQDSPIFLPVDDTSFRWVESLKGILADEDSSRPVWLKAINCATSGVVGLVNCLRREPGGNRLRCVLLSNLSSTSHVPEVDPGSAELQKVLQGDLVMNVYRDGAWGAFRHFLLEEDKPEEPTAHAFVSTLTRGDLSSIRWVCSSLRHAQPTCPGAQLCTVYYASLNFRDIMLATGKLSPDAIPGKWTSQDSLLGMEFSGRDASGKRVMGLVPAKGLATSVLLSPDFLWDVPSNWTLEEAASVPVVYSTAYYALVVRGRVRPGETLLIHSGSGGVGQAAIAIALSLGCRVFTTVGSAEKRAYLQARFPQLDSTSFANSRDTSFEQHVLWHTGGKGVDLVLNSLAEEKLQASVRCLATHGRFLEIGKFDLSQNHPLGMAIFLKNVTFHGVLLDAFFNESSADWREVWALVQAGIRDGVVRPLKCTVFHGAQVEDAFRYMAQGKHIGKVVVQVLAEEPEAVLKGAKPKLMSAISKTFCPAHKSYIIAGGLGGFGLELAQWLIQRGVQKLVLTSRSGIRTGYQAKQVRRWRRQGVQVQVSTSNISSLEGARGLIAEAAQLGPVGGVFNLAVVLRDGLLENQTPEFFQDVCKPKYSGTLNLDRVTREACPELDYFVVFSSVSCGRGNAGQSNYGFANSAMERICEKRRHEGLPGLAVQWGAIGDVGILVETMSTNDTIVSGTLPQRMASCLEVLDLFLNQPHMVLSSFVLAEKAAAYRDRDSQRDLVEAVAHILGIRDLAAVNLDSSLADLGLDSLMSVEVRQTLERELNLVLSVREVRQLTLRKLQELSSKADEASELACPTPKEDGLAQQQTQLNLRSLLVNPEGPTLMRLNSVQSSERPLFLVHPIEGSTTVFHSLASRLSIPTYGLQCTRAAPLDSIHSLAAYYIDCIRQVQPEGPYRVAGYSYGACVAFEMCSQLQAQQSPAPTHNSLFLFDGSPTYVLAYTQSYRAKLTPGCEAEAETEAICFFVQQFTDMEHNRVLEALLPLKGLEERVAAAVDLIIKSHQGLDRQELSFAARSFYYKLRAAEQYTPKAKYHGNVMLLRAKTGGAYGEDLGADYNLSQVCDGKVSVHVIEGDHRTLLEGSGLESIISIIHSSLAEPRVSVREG
UniProt P46013: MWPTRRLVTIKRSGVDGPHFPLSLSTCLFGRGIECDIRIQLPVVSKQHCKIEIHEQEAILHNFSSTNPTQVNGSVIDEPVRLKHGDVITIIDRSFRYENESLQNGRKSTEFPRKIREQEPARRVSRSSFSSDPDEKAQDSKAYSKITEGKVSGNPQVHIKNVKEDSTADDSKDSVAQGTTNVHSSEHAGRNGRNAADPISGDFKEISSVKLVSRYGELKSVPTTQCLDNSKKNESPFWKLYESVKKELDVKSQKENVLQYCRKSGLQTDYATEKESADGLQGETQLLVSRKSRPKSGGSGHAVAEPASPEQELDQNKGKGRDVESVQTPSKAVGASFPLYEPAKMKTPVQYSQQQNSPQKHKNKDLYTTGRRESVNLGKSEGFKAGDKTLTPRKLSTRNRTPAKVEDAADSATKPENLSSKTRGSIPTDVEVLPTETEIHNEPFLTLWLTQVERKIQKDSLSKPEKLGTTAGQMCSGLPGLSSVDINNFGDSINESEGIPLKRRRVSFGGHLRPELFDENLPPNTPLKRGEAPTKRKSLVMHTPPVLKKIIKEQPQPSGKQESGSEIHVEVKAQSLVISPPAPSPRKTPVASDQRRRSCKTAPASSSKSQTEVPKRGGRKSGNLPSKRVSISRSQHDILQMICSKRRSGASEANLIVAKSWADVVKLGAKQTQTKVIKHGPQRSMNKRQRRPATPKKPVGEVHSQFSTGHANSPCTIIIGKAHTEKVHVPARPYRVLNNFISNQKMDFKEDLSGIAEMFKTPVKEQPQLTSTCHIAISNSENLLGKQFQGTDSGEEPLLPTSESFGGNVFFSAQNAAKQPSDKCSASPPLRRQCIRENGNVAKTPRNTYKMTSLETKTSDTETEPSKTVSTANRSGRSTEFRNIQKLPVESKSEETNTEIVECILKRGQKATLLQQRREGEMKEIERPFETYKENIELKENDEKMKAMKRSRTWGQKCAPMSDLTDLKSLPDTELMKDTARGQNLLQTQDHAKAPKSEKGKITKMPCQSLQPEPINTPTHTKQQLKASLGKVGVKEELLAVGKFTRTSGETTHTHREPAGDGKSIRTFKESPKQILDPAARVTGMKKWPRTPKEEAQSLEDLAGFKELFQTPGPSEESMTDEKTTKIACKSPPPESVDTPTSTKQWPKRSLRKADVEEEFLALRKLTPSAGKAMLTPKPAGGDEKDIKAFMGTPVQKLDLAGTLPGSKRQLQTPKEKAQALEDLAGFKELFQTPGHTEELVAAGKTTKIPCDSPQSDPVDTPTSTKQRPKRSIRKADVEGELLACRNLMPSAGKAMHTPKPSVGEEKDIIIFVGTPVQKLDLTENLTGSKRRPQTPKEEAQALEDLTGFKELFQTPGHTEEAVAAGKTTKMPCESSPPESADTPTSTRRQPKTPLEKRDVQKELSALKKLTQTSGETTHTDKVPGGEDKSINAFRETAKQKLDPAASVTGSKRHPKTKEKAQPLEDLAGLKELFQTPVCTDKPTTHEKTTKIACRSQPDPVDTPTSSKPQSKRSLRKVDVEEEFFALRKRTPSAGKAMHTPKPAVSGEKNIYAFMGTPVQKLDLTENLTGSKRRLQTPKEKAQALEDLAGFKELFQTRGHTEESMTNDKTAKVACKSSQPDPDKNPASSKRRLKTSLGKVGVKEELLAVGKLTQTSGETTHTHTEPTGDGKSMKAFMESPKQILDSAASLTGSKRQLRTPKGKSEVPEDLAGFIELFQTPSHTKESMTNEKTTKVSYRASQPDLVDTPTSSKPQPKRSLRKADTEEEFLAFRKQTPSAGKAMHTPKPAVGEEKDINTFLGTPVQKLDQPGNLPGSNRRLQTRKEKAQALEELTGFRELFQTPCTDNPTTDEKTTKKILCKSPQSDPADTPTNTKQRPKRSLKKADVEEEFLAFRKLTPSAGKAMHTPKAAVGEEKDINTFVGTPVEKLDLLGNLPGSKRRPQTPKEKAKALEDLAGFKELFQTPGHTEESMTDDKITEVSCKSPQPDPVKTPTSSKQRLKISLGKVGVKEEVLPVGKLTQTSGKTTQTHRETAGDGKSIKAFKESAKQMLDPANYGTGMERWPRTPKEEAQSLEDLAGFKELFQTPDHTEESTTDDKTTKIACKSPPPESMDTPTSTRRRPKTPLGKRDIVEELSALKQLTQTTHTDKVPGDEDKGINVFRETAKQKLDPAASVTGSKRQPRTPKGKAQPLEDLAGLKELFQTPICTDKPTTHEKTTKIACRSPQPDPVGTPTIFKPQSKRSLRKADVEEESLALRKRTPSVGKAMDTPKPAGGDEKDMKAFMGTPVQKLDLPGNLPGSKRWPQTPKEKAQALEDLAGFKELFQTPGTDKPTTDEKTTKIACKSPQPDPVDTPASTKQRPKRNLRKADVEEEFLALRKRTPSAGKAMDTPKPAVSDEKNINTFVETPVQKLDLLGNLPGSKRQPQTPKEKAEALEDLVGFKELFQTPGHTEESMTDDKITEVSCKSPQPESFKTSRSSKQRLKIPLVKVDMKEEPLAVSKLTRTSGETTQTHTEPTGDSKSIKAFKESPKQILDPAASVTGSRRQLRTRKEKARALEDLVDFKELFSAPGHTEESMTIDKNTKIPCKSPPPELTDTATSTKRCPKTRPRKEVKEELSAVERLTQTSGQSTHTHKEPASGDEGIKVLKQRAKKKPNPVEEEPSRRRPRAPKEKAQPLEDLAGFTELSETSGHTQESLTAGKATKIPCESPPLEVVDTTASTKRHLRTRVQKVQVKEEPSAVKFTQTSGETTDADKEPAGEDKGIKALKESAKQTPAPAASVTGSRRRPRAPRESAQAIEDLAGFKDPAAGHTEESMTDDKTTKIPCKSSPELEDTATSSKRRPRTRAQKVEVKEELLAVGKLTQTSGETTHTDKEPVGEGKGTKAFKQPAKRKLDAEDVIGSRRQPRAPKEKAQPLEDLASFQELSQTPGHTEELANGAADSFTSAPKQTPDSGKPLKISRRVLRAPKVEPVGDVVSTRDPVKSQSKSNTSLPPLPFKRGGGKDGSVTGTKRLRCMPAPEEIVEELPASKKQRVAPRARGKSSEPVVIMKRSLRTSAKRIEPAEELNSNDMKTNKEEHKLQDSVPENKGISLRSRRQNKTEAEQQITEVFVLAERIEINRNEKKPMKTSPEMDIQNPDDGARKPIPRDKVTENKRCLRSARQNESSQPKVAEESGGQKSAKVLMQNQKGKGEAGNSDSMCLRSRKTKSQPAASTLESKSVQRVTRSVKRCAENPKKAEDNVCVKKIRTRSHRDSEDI

Compound: COC(=O)/C=C/c1ccccc1 [methyl cinnamate]
Assay: log2 ratio of iodoacetamide-alkyne labeling of the cysteine site, DMSO over compound (competition); higher = stronger covalent engagement of the cysteine by the compound, active = 1 or more
Conditions: 500 µM; treatment time 1 h; system: HEK293T cell lysate
In short: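 HEK293T lysate (2 mg/mL) was treated with DMSO or electrophile (500 µM, 1 h, ambient temperature), then iodoacetamide alkyne (1 h), clicked to sCIP-TMT reagents, pooled, trypsin-digested overnight at 37 °C, streptavidin-enriched and acid-eluted. Peptides were run on Orbitrap Eclipse LC-MS/MS with FAIMS and quantified in FragPipe. The log2 competition ratio per cysteine is mean control-channel over mean compound-channel reporter intensity. Duplicate channels and three replicates were used, and cysteines quantified in only one replicate were excluded.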

log2 ratio of iodoacetamide-alkyne labeling, inactive:
NDUFV1 C187 (UniProt P49821) 0.11
LIMS1 C303 (UniProt P48059) 0.375
UniProt P49674_C255 -0.019
CCT4 C379 (UniProt P50991) 0.282
RANBP2 C1335 (UniProt P49792) -0.00746
NUP153 C404 (UniProt P49790) 0.365
PSMD8 C112 (UniProt P48556) 0.234
RPL14 C54 (UniProt P50914) 0.0537
PRIM1 C354 (UniProt P49642) 0.0483
SEPHS1 C71 (UniProt P49903) -0.027
MAP1B C2361 (UniProt P46821) 0.179
FASN C2024 (UniProt P49327) -0.229
RPL21 C56 (UniProt P46778) 0.241
RPS5 C172 (UniProt P46782) -0.0134
UniProt P49841_C14 0.232
MKI67 C226 (UniProt P46013) 0.216

Retrieved one by one from the list above:
log2 ratio of iodoacetamide-alkyne labeling, inactive:
RPS5 C172 (UniProt P46782) -0.0134
SEPHS1 C71 (UniProt P49903) -0.027
